Data on 1 substance can be found in PMC10361663.

In the experiment the target is T1, HURP (Hepatoma Upregulated Protein) (human (endogenous in HeLa Kyoto)) (UniProt Q15398).
T1 sequence: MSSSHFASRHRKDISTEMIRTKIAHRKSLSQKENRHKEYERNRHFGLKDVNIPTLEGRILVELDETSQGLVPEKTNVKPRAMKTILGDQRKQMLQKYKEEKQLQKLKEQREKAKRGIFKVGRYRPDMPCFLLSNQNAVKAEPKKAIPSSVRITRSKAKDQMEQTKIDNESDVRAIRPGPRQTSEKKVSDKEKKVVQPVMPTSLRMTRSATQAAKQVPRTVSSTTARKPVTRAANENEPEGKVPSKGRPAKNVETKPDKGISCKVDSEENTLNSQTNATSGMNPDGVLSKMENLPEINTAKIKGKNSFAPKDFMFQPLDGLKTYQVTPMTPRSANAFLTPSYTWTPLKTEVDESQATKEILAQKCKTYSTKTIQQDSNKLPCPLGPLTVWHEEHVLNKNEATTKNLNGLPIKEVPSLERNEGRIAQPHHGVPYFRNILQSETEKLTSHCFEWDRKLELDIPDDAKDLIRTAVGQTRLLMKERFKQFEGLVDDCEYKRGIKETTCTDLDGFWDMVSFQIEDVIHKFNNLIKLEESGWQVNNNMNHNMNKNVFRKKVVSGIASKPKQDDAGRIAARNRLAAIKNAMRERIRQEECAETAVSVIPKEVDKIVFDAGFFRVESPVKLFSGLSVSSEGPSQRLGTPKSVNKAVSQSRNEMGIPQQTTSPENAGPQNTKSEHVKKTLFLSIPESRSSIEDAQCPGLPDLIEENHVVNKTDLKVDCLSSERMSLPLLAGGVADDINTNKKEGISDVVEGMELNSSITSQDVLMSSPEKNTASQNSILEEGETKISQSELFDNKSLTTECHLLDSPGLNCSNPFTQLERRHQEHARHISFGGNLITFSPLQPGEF
The experiment in a line: co-IP; HeLa Kyoto mitotic cell extracts (Nocodazole arrest, RIPA buffer, 1 mg per IP); IP with anti-HURP antibodies (ab70744, GKAP or DHL5 antisera) on protein A agarose, 4°C; Western blot; controls pre-immune IgG, rabbit IgG or anti-GFP antibody.

These are yes or no findings as the source states them, for the method shown. Binding seen in cells or lysates may run through a third protein. A result given as binding can be weak or reduced; the word gives no strength.

On to “Dynein (human (endogenous in HeLa Kyoto))”, for which the binding result is reported as “binds”.
